Our source for the MIC values is publication PMC9066168 (RSC Advances, 2019).

Converted amounts (≈) assume the structure as drawn.

The subject of this experiment is Candida albicans (MTCC 227). Put plainly: Minimum inhibitory concentration, agar dilution method. Format: cell-based. The conditions noted are these: MTCC227, 24 h, read-out: Minimum inhibitory concentration, C. albicans. On the technique in general: In agar dilution, organisms are placed on agar that contains the substance at set levels.

For `C[C@@H]1[C@H](O)[C@@H](C)/C=C/C=C/C=C/C=C/C=C/C=C/C=C/[C@H](O[C@@H]2O[C@H](C)[C@@H](O)[C@H](N)[C@@H]2O)C[C@@H]2O[C@](O)(C[C@@H](O)C[C@@H](O)[C@H](O)CC[C@@H](O)C[C@@H](O)CC(=O)O[C@H]1C)C[C@H](O)[C@H]2C(=O)O` [Amphotericin B], the MIC was found to be 0.1 µg/mL (≈ 0.108 µM).
